Assay results reported in publication PMC5078790.
No constants are given. Whether binding was seen depends on the method and setting. In cells and extracts the contact can be indirect. Some results given as binding are weak or reduced against the parent protein; the word gives no strength.

By UniProt entry, the sequences of proteins in these tests, tags left out.
UniProt Q60631: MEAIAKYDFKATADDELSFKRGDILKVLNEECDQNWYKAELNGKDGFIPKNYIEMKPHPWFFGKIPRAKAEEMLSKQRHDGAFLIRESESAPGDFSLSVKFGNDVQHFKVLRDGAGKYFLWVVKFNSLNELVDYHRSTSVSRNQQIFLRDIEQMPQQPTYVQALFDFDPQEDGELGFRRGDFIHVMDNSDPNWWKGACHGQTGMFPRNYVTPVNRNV

Biological target: Grb2 (mouse (endogenous in MEFs)) (UniProt Q60631)
Assay: co-IP; anti-Grb2 antibodies, 3 hours at 4 °C, Dynabeads protein G; lysates of dab2 HET and CKO MEFs on days 0, 1, 4, 9 of adipose differentiation; NP-40 IP buffer (1% NP-40, 150 mM NaCl, 50 mM Tris-HCl, 10 mM EDTA, pH 8.0); Western blot of Dab2, Sos1 and Grb2

binding: binds
Substance: Sos1 (from UniProt Q62245 1-1319)
